These results are taken from paper PMC10403143.

The chains behind the UniProt entries cited, without tags or fusion partners. Residues count along the entry.
UniProt O08852, residues 24-4293: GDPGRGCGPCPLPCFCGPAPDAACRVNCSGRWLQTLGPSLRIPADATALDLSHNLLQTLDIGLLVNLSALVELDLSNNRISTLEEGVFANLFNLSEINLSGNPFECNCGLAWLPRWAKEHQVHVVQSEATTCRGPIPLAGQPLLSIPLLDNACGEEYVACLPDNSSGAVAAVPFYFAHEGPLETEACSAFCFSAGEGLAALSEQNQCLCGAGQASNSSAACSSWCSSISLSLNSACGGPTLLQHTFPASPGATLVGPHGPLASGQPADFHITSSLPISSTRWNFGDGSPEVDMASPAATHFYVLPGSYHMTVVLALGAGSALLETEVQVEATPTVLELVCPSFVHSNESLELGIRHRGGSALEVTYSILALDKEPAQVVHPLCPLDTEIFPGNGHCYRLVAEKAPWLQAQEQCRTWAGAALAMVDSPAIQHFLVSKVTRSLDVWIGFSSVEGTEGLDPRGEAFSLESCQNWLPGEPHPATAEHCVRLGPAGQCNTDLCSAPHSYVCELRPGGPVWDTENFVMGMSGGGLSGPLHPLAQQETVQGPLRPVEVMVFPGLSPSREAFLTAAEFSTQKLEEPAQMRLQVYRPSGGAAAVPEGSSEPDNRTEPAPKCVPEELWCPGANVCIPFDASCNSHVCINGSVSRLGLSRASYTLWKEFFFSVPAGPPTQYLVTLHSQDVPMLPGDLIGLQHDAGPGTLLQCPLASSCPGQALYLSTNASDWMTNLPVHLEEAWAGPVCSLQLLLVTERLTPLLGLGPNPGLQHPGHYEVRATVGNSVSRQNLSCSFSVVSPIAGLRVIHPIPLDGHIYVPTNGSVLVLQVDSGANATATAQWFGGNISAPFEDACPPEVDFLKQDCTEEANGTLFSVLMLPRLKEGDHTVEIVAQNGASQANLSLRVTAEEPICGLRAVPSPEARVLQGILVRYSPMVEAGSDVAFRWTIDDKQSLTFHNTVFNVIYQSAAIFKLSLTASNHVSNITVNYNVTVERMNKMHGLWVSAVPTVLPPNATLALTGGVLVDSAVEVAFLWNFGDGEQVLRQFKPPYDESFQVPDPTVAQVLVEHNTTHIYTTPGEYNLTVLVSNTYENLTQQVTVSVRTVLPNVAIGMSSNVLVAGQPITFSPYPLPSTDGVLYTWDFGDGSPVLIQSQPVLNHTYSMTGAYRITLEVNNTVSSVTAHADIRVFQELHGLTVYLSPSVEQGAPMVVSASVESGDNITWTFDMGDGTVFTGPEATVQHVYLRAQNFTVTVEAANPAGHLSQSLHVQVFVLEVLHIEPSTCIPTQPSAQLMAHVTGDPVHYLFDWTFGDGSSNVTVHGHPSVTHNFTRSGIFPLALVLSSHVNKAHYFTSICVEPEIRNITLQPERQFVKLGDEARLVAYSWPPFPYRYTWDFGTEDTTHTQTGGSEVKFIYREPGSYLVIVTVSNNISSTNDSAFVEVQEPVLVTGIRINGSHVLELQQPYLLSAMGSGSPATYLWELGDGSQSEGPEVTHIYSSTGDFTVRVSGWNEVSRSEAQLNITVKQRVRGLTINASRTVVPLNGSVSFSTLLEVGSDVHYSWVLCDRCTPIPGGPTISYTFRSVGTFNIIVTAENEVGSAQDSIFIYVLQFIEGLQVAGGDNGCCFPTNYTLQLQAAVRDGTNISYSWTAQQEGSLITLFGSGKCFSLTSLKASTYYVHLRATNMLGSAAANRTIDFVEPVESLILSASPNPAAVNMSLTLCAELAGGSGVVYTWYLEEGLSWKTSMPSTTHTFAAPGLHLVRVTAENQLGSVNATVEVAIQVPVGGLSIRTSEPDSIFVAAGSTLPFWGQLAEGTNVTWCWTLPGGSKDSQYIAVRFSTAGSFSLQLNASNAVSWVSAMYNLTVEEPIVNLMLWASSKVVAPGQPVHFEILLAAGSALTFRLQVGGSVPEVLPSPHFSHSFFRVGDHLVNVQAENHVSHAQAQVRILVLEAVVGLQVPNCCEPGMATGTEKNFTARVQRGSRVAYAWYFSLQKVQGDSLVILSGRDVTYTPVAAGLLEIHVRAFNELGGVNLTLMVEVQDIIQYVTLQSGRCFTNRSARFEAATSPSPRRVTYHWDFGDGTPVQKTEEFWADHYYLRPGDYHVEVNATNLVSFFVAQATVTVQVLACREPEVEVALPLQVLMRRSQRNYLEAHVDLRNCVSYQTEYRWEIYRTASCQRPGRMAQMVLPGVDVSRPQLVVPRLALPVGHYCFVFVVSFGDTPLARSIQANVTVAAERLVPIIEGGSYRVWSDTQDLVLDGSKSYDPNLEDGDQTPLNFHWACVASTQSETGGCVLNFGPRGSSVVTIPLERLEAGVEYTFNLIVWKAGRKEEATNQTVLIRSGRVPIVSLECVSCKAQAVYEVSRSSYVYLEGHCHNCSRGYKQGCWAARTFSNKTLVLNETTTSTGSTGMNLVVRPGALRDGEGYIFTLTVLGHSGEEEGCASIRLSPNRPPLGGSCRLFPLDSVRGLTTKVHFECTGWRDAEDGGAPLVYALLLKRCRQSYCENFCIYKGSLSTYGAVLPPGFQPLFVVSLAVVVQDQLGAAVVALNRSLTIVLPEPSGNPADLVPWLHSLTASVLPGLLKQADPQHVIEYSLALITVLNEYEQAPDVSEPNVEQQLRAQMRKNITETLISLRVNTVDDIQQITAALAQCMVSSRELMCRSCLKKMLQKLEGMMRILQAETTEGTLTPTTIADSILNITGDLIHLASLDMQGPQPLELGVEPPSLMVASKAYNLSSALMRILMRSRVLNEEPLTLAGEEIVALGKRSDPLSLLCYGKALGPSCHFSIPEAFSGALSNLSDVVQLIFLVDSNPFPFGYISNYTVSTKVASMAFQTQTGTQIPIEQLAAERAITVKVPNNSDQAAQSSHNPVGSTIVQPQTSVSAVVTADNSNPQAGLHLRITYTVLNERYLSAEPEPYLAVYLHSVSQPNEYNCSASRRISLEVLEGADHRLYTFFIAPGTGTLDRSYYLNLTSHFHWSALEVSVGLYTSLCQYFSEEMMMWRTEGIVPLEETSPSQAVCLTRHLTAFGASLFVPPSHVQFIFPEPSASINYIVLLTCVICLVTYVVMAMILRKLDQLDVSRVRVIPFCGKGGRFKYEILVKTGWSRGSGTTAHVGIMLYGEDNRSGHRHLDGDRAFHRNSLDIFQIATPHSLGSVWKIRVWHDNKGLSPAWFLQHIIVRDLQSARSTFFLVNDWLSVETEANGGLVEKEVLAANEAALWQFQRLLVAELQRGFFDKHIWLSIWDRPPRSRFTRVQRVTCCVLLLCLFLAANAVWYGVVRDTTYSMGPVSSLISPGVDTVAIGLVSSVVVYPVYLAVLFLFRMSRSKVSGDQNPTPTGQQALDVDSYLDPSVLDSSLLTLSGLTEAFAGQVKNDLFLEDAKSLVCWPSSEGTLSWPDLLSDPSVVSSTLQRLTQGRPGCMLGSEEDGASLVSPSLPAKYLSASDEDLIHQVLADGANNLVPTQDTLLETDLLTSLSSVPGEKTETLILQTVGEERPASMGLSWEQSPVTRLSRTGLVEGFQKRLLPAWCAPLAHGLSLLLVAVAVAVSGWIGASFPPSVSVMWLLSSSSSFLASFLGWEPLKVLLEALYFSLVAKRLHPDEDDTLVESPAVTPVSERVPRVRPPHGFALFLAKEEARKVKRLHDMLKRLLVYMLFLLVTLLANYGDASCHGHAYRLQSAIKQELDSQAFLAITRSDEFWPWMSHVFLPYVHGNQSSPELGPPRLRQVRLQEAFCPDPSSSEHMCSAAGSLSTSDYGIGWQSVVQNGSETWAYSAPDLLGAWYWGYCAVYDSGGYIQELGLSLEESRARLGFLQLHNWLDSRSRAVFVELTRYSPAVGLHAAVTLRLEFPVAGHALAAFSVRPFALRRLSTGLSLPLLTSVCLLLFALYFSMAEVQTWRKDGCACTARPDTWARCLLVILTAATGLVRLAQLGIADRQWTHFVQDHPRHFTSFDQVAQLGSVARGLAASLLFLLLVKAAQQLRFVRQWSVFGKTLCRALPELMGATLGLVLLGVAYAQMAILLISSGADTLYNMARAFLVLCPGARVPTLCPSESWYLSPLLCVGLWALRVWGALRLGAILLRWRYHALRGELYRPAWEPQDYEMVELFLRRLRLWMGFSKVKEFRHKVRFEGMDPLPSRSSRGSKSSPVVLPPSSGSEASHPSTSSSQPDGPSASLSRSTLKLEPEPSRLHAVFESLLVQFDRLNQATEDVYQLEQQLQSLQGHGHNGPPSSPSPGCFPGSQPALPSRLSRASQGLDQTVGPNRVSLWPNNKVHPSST

No constants are given. Whether binding was seen depends on the method and setting. Binding seen in cells or lysates may run through a third protein. Some entries that bind do so weakly or less than the wild type.

In the assay the target is Polycystin-1 with eGFP and three HA tags at its C-terminus, from the Pkd1^eGFP knock-in allele (mouse) (UniProt O08852). As to the kind of experiment: co-IP; Mouse tissue lysate (1% Triton X-100, 150 mM NaCl, 50 mM Tris HCl pH 8.0, 0.25% sodium deoxycholate). PC1-eGFP precipitated with anti-GFP nanobody magnetic agarose beads (GFP-trap), 1 hr at 4°C, with quick gentle washes; more stringent washing for one P2 kidney panel. Immunoblot with anti-PC2 or anti-NNT. Wild type mice without the tag served as control. (In general: Immunoblotting shows a protein as a band on a membrane.)

B1: nicotinamide nucleotide transhydrogenase (protein, UniProt Q61941 44-1086)
chain: CKSPVKPGIPYKQLTVGVPKEIFQNEKRVALSPAGVQALVKQGFNVVVESGAGEASKFPDDLYRAAGAQIQGMKEVLASDLVVKVRAPMVNPTLGAHEADFLKPSGTLISFIYPAQNPDLLNKLSERKTTVLAMDQVPRVTIAQGYDALSSMANISGYKAVVLAANHFGRFFTGQITAAGKVPPAKILIVGGGVAGLASAGAAKSMGAVVRGFDTRAAALEQFKSLGAEPLEVDLKESGEGQGGYAKEMSKEFIEAEMKLFAQQCKEVDILISTALIPGKKAPVLFSKEMIESMKEGSVVVDLAAEAGGNFETTKPGELYVHKGITHIGYTDLPSRMATQASTLYSNNITKLLKAISPDKDNFHFEVKDDFDFGTMSHVIRGTVVMKDGKVIFPAPTPKNIPEEAPVKPKTVAELEAEKAGTVSMYTKTLTTASVYSAGLTGMLGLGIVAPNVAFSQMVTTFGLAGIIGYHTVWGVTPALHSPLMSVTNAISGLTAVGGLALMGGHFYPSTTSQSLAALATFISSVNIAGGFLVTQRMLDMFKRPTDPPEYNYLYLLPGGTFVGGYLAALYGGYNIEEIMYLGSGLCCVGALGGLSTQGTARLGNALGMIGVAGGLAATLGGLKPDPQLLAQMSGAMAMGGTIGLTIAKRIQISDLPQLVAAFHSLVGLAAVLTCMAEYIVEYPHFAMDATSNFTKIVAYLGTYIGGVTFSGSLVAYGKLQGILKSAPLLLPGRHALNAGLLAASVGGIIPFMADPSFTTGITCLGSVSGLSTLMGVTLTAAIGGADMPVVITVLNSYSGWALCAEGFLLNNNLLTIVGALIGSSGAILSYIMCVAMNRSLANVILGGYGTTSTAGGKPMEISGTHTEINLDNAVEMIREANSIVITPGYGLCAAKAQYPIADLVKMLTEQGKKVRFGIHPVAGRMPGQLNVLLAEAGVPYDIVLEMDEINSDFPDTDLVLVIGANDTVNSAAQEDPNSIIAGMPVLEVWKSKQVIVMKRSLGVGYAAVDNPIFYKPNTAMLLGDAKKTCDALQAKVRESYQK
For B1, the binding entry is “binds”.

B2: Polycystin-2 (protein, UniProt O35245 1-966)
chain: MVNSRRVQPQPPGDAGRSPAPRASGPGRLVAGGAGLAVPGGLGEQRGLEIEMERIRQAAARDPPAGASASPSPPLSSCSRQAWSRDNPGFEAEEDDDDDEVEGEEGGMVVEMDVEWRPGSRRSASSSAVSSVGARGRGLGSYRGAAHLSGRRRRLEDQGAQCPSPAGGGDPLHRHLPLEGQPPRVAWAERLVRGLRGLWGTRLMEESNANREKYLKSVLRELVTYLFFLVVLCILTYGMMSSNVYYYTRTLSQLFIDTPVSKTEKTNFKTLSSMEDFWKFTEGSFLDGLYWKAQTSNHTQADNRSFIFYENLLLGVPRLRQLRVRNGSCSIPQDLRDEIKECYDVYSVSSEDRAPFGPRNGTAWMYTSEKELNGSSHWGIIASYSGAGYYLDLSRTREETAAQLAGLRRNFWLDRGTRAAFIDFSVYNANINLFCVVRLLAEFPATGGVVPSWQFQPVKLIRYVTAFDFFLAACEIIFCFFIIYYVVEEILEIRIHRLSYFRSFWNCLDVVIVVLSVVAMVINIYRMSNAEGLLQFLEDQNSFPNFEHVAYWQIQFNNISAVMVFLVWIKLFKFINFNRTMSQLSTTMSRCAKDLFGFTIMFSIIFLAYAQLAYLVFGTQVDDFSTFQECIFTQFRIILGDINFAEIEEANRVLGPLYFTTFVFFMFFILLNMFLAIINDSYSEVKSDLAQQKAEMELSDLIRKGCQKALVKLKLKRNTVDAISESLRQGGGKLNFDELRQDLKGKGHTDAEIEAIFTKYDQDGDQELTEREHQQMRDDLEKEREDLDLEHSSLPRPMSSRSFPRSLDDSEEEDDEDSGHSSRRRGSISSGVSYEEFQVLVRRVDRMEHSIGSIVSKIDAVIVKLEIMERAKLKRREVLGRLLDGVAEDARLGRDSEIHREQMERLVREELERWESDDAASQTGHGVSTQVGLGGQPHPRNPRPPSSQSAEGLEGGGGNGSANVHA
In the case of B2, the binding entry is on record as “binds”.
